Taken from: PubChem BioAssay AID652272 (Drosophila RNAi Screening Center, 2013)
Purpose: 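Genes whose knock-down decreases or increases Hedgehog reporter output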 (primary screen). Cells: Drosophila clone 8 (Cl8) cells. Reagent: long dsRNA against Drosophila genes. Read-out: 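Firefly light from a Hedgehog-responsive ptc promoter reporter and Renilla reference light, both read on a plate reader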. Reading the numbers: firefly Hh reporter signal: higher = more ptc reporter light; Renilla reference signal: higher = more Renilla control light. Rule for the call: 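Hit when the z-score averaged over two replicates is under -2 or over +3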. Calls: active = hit: reporter lowered or raised; inactive = not a hit.
The deposit covers about 21,000 reagents; below is a random part of those that have a named target and a result. Over the whole deposit, 503 (2.4%) are marked active. 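Raw plate light values, not normalised; calls rest on replicate z-scores that were not deposited; hits include reporter decreases as well as increases.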 Unmarked entries are inactive. The record does not give: the amount of reagent, the time to read-out.

Which result is listed for Ercc1 (GeneID 36654) [DRSC07424]?
firefly Hh reporter signal, replicate 1: 33075; firefly Hh reporter signal, replicate 2: 34768; Renilla reference signal, replicate 1: 2355; Renilla reference signal, replicate 2: 2011

With dsx (GeneID 40940) [DRSC12649], what does the deposit list?
firefly Hh reporter signal, replicate 1: 1.70e5; Renilla reference signal, replicate 1: 3222

What is on record for dsx (GeneID 40940) [DRSC16934]?
firefly Hh reporter signal, replicate 1: 1.88e5; firefly Hh reporter signal, replicate 2: 6.84e5; firefly Hh reporter signal, replicate 3: 1.29e5; Renilla reference signal, replicate 1: 8084; Renilla reference signal, replicate 2: 42112

With tral (GeneID 39430) [DRSC09779], how do the results read?
firefly Hh reporter signal, replicate 1: 68663; firefly Hh reporter signal, replicate 2: 29943; Renilla reference signal, replicate 1: 3568; Renilla reference signal, replicate 2: 1792

What did the screen give for CG12320 (GeneID 42189) [DRSC14498]?
firefly Hh reporter signal, replicate 1: 5.34e5; firefly Hh reporter signal, replicate 2: 84584; Renilla reference signal, replicate 1: 26704; Renilla reference signal, replicate 2: 1796

What is on record for prim (GeneID 36814) [DRSC06575]?
firefly Hh reporter signal, replicate 1: 79821; firefly Hh reporter signal, replicate 2: 73371; Renilla reference signal, replicate 1: 2042; Renilla reference signal, replicate 2: 4118

For Serinc (GeneID 39827) [DRSC11296], what does the deposit list?
firefly Hh reporter signal, replicate 1: 78138; firefly Hh reporter signal, replicate 2: 51385; Renilla reference signal, replicate 1: 2984; Renilla reference signal, replicate 2: 2018

What did the screen give for CG13060 (GeneID 39802) [DRSC09943]?
firefly Hh reporter signal, replicate 1: 1.35e5; Renilla reference signal, replicate 1: 7510; Renilla reference signal, replicate 2: 4020

For CG42813 (GeneID 43276) [DRSC15939], how do the results read?
firefly Hh reporter signal, replicate 1: 1.42e5; firefly Hh reporter signal, replicate 2: 1.01e5; Renilla reference signal, replicate 1: 3378; Renilla reference signal, replicate 2: 2592

With Cpr31A (GeneID 2768918) [DRSC02779], what was measured?
firefly Hh reporter signal, replicate 1: 85104; firefly Hh reporter signal, replicate 2: 45680; Renilla reference signal, replicate 1: 2357; Renilla reference signal, replicate 2: 4935

With Sms (GeneID 39403) [DRSC10408], what was measured?
firefly Hh reporter signal, replicate 1: 71943; firefly Hh reporter signal, replicate 2: 46872; firefly Hh reporter signal, replicate 3: 42762; Renilla reference signal, replicate 1: 4310; Renilla reference signal, replicate 2: 2889

With htl (GeneID 42160) [DRSC16968], how do the results read?
firefly Hh reporter signal, replicate 1: 1.33e5; firefly Hh reporter signal, replicate 2: 54496; Renilla reference signal, replicate 1: 5344; Renilla reference signal, replicate 2: 2180

For Pde6 (GeneID 41760) [DRSC16401], what was measured?
firefly Hh reporter signal, replicate 1: 1.08e5; firefly Hh reporter signal, replicate 2: 1.05e5; Renilla reference signal, replicate 1: 4150; Renilla reference signal, replicate 2: 4049

With Pde6 (GeneID 41760) [DRSC16402], what does the deposit list?
firefly Hh reporter signal, replicate 1: 76129; firefly Hh reporter signal, replicate 2: 69812; Renilla reference signal, replicate 1: 2507; Renilla reference signal, replicate 2: 1943

What is on record for Pde6 (GeneID 41760) [DRSC16403]?
firefly Hh reporter signal, replicate 1: 59008; firefly Hh reporter signal, replicate 2: 96234; Renilla reference signal, replicate 1: 2151; Renilla reference signal, replicate 2: 2309

For Tsp2A (GeneID 31080) [DRSC18584], what does the deposit list?
firefly Hh reporter signal, replicate 1: 69491; firefly Hh reporter signal, replicate 2: 1.22e5; Renilla reference signal, replicate 1: 2000; Renilla reference signal, replicate 2: 5114

What did the screen give for Fitm (GeneID 38596) [DRSC09772]?
firefly Hh reporter signal, replicate 1: 93381; firefly Hh reporter signal, replicate 2: 59655; Renilla reference signal, replicate 1: 4192; Renilla reference signal, replicate 2: 2776

With nub (GeneID 34669) [DRSC01260], what does the deposit list?
firefly Hh reporter signal, replicate 1: 6.15e5; firefly Hh reporter signal, replicate 2: 3.55e5; Renilla reference signal, replicate 1: 27842; Renilla reference signal, replicate 2: 13176

With nub (GeneID 34669) [DRSC02498], what was measured?
firefly Hh reporter signal, replicate 1: 1.16e5; firefly Hh reporter signal, replicate 2: 51173; Renilla reference signal, replicate 1: 3466; Renilla reference signal, replicate 2: 5328

How did the screen score nub (GeneID 34669) [DRSC02499]?
firefly Hh reporter signal, replicate 1: 1.90e5; firefly Hh reporter signal, replicate 2: 82995; Renilla reference signal, replicate 1: 4765; Renilla reference signal, replicate 2: 7558

Which result is listed for nub (GeneID 34669) [DRSC03583]?
firefly Hh reporter signal, replicate 1: 86181; firefly Hh reporter signal, replicate 2: 42728; Renilla reference signal, replicate 1: 2504; Renilla reference signal, replicate 2: 4288
